SMILES strings stand for the structures. Some of the results follow. Single values are uncertain here, since repeats match poorly.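 HEK293T cells were given each compound shortly before transfection with a reporter in which red mCherry is followed by the SARS-CoV-2 frameshift element and then GFP in the −1 frame, so GFP appears only after frameshifting.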

In this experiment the test system is HEK293T. Kind of experiment: percent viability (nuclei count) relative to control; higher = more viable cells. The conditions noted are these: 10 µM; 24 h.
Take `Cn1c(=O)c2c(ncn2CC(O)CO)n(C)c1=O` (stereo not given) [diprophylline]: the percent viability was 146%.
On to `CO[C@@]1(NC(=O)C2SC(=C(C(N)=O)C(=O)O)S2)C(=O)N2C(C(=O)O)=C(CSc3nnnn3C)CS[C@@H]21` (stereo not given in full), for which the percent viability stood at 289%.
To `CC1CC(OC(=O)C(O)c2ccccc2)CC(C)(C)N1C` (stereo not given) belongs 131%.
For the compound `C[C@H]1[C@H](OC(=O)CCC(=O)O)O[C@@H]2O[C@@]3(C)CC[C@H]4[C@H](C)CC[C@@H]1[C@@]24OO3`, the percent viability stood at 21.3%.
In the case of `CN1[C@@H]2CC[C@H]1C[C@@H](OC(=O)c1c[nH]c3ccccc13)C2` [tropisetron] it was 135%; in that of `CCCOC(=O)c1ccc(N)cc1` [risocaine], 35.1%.
In the case of `CCOC(=O)n1ccn(C)c1=S` [carbimazole] it was 235%; in that of `COc1cc(OC)cc(OCCO)c1` [floverine], 106%; in that of `Cc1sc[n+](CC(=O)c2ccccc2)c1C` [alagebrium chloride], 215%.
In the case of `CCCCCC(=O)O[C@]1(C(C)=O)CC[C@H]2[C@@H]3CCC4=CC(=O)CC[C@@H]4[C@H]3CC[C@@]21C` [gestonorone caproate] it was 201%.
Take `CCCCc1ccc(C(N)=O)nc1` [bupicomide]: the percent viability is 135%.
To `CC(=O)N[C@@H](CCC(N)=O)C(=O)O` [aceglutamide] belongs 184%; to `C[n+]1cc2c3c(ccc2c2ccc4cc5c(cc4c21)OCO5)OCO3` [sanguinarium chloride], 13.5%.
In the case of `CN(C)CCN1C(=O)c2ccccc2N(C)c2ccccc21` [dibenzepin] it was 260%; in that of `FCOC(C(F)(F)F)C(F)(F)F` [sevoflurane], 196%.

Source of the values: the supplement of paper PMC8256030.
